Source: paper PMC10876960
Results are given in words; binding and its absence hold for the method and conditions named. Binding seen in cells or lysates may run through a third protein. Some results given as binding are weak or reduced against the parent protein; the word gives no strength. Where a sequence is shown, tags or fusion partners need not be part of it.

Protein sequences, listed by entry. Tags and fused reporters are not part of them.
UniProt P37238: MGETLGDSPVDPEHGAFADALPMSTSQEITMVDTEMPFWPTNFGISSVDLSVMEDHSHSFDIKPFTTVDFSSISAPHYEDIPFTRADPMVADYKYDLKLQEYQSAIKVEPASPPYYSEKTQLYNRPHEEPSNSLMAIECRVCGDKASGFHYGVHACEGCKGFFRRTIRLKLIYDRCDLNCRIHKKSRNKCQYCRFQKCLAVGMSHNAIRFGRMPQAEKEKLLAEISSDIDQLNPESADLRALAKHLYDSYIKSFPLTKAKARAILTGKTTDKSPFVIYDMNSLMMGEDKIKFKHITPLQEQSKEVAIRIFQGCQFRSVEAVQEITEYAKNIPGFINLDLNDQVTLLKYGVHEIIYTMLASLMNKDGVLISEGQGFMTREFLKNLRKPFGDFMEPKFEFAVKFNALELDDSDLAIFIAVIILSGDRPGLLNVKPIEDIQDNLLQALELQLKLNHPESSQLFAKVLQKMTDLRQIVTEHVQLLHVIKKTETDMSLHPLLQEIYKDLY

Molecular target: T1, FSCN2-Flag (Fscn2-3xFLAG, overexpressed in HEI-OC1 cells) (UniProt Q32M02)
T1 sequence: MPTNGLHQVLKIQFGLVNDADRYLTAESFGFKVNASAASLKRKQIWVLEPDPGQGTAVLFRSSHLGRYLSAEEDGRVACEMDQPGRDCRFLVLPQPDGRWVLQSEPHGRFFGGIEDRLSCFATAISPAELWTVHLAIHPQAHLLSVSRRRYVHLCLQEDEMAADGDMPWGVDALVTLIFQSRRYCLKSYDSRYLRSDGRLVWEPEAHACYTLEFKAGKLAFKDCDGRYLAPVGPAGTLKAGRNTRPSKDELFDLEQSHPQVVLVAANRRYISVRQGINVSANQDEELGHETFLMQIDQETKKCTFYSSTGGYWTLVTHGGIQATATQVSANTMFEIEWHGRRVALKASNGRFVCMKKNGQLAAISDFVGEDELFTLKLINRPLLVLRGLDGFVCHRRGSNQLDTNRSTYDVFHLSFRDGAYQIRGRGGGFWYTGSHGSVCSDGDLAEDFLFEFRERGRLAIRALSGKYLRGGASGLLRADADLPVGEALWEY
Assay: co-IP; lysate (RIPA buffer with PMSF) of HEI-OC1 cells overexpressing Fscn2-3xFLAG incubated overnight with Anti-DYKDDDDK (Flag) Affinity Gel; acid elution; Western blotting

binding: binds
Substance: PPAR-γ (from UniProt P37238 1-505)
